Patent publication US6737241B2, “Methods for screening for transdominant intracellular effector peptides and RNA molecules” (Rigel Pharmaceuticals, Inc., priority 1996, dated 2004)
At least one compound was matched to its structure with a doubt left.

Tested on: IkB-α
Experiment: Degradation of β-gal-IkB-α fusion after LPS, measured by FACS (FDG)
Format: cell-based, murine
Settings: 70Z/3 pre-B cells, maximal LPS induction

CC(=O)Oc1ccccc1C(=O)O [Salicylate, salicylate]
degradation of the β-gal-IkB fusion: blocked degradation of the β-gal-IkB fusion to the same extent as the dominant negative IkB-α
